Test results reported in paper PMC11898301.
Substitutions are numbered along the chain they refer to. No constants are given. Whether binding was seen depends on the method and setting. In cells and extracts the contact can be indirect. Some binding calls cover weakened binding; strength is not graded here. Where a sequence is shown, tags or fusion partners need not be part of it.

The chains behind the UniProt entries cited, without tags or fusion partners.
UniProt Q969H0: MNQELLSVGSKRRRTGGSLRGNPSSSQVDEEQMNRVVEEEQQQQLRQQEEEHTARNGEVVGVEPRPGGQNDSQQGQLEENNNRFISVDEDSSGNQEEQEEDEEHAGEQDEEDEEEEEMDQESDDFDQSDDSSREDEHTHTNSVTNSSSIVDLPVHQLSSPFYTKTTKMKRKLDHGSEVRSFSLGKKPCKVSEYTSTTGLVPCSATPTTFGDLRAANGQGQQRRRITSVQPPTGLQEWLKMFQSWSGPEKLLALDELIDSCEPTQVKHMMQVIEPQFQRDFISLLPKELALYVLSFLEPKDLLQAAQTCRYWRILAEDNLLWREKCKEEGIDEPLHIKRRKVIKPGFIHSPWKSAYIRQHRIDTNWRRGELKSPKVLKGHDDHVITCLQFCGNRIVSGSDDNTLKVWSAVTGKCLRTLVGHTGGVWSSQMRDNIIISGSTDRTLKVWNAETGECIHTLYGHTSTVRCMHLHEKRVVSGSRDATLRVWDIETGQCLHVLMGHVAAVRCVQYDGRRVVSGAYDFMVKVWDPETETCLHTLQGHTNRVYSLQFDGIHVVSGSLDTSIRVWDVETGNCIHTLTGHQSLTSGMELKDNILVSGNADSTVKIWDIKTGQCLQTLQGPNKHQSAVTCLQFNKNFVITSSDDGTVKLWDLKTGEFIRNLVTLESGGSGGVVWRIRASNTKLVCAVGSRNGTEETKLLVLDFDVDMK

Legend:
Assay in all cases: co-IP; 293T cells transfected with HA-PRR11 (WT, fragments or mutants) and Flag-GSK3β or Flag-FBXW7 (WT or mutants); MG132 10 μM for 6 h before collection; IP with HA or Flag antibody, Protein A/G magnetic beads, Western blot; in some panels λ-PPase added to extracts, CHIR-99021, siGSK3β or GSK3β overexpression
[1] = biological target: T1, HA-PRR11-WT (proline-rich 11) (human) (UniProt Q96HE9)
T1 sequence: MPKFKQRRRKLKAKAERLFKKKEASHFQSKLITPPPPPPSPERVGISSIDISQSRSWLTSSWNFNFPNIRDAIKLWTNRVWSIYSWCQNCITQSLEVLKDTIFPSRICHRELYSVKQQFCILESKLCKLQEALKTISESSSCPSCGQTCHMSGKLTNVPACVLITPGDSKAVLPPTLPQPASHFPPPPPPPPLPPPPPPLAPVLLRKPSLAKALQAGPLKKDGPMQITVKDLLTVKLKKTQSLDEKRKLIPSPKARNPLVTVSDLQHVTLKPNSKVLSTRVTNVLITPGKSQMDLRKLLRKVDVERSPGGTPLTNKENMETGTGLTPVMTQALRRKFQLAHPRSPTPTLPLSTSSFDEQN

[2] = biological target: T2, HA-PRR11-1A (T287A/S291A) (human) (UniProt Q96HE9)
T2 sequence: T1 sequence with T287A, S291A

[3] = biological target: T3, HA-PRR11-1Δ/2Δ (I286_S291del/L325_T330del) (human) (UniProt Q96HE9)
T3 sequence: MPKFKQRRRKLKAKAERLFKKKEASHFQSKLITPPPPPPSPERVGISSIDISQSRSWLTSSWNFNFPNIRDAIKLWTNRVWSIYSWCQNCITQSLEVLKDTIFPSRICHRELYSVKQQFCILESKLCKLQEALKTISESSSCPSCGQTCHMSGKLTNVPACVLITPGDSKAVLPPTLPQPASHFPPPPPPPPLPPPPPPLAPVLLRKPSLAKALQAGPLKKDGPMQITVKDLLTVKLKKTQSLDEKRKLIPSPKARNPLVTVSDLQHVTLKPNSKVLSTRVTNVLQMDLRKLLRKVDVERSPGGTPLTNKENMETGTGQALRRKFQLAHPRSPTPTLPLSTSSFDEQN

[4] = biological target: T4, HA-PRR11-1A/2A (T287A/S291A/T326A/T330A) (human) (UniProt Q96HE9)
T4 sequence: T1 sequence with T287A, S291A, T326A, T330A

[5] = biological target: T5, HA-PRR11-2D (T326D/T330D) (human) (UniProt Q96HE9)
T5 sequence: T1 sequence with T326D, T330D

Measured: binding

Flag-FBXW7 (from UniProt Q969H0 1-707)
binds: all assays above
